The record followed here is the supplement of paper PMC12819154, “High-throughput peptide-centric local stability assay extends protein–ligand identification to membrane proteins, tissues and bacteria” (Nature Structural & Molecular Biology, 2025).

Amino acid sequences for entries named in this document (tags omitted). A change or cut given only in a name is not applied to a line headed by its entry.
UniProt Q04727: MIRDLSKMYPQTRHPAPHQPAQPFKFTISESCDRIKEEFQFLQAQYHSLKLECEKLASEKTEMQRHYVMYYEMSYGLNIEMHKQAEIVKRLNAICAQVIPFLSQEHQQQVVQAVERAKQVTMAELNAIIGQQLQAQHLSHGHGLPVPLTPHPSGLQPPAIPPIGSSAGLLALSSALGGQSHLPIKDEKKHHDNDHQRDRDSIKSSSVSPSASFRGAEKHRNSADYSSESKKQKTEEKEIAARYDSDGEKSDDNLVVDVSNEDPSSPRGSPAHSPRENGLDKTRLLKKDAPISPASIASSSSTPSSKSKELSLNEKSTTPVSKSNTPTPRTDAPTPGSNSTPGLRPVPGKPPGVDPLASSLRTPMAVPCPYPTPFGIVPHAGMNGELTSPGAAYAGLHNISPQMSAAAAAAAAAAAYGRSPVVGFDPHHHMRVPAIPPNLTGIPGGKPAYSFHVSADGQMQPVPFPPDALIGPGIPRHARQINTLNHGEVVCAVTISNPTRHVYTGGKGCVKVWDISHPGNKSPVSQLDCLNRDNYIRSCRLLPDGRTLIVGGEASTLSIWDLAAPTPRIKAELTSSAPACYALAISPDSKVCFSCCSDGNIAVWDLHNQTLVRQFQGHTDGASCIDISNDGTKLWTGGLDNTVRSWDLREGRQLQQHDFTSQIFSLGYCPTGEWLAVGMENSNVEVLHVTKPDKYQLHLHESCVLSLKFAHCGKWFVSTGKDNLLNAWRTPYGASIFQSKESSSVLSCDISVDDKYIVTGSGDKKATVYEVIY
UniProt Q08999: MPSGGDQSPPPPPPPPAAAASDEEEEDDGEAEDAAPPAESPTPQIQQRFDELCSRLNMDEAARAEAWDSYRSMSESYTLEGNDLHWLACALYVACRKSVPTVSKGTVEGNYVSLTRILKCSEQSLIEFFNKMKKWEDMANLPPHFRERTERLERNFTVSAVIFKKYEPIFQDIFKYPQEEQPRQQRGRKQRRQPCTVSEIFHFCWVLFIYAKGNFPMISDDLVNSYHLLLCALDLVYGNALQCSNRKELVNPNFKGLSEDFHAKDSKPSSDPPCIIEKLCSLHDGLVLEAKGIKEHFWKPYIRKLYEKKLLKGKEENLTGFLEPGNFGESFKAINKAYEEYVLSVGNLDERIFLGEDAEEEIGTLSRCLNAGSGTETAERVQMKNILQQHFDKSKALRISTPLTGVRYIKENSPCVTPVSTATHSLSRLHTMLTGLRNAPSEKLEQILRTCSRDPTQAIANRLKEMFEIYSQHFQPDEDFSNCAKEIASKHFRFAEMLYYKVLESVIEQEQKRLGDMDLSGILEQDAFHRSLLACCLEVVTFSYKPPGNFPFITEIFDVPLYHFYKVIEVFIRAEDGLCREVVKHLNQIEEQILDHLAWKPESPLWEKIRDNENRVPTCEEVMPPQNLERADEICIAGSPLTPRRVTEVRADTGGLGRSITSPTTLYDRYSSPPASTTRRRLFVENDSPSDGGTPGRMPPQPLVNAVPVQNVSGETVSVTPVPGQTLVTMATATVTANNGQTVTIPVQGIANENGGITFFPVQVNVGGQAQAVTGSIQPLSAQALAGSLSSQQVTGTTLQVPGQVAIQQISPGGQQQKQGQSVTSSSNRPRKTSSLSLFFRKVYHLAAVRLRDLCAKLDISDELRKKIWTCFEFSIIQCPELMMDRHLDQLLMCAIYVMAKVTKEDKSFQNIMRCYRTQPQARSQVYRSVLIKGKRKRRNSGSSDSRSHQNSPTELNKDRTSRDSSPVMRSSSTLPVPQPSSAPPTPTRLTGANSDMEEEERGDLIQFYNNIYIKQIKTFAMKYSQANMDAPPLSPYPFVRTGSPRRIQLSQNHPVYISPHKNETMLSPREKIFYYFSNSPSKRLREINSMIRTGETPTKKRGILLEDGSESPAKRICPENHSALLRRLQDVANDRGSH
UniProt Q08379: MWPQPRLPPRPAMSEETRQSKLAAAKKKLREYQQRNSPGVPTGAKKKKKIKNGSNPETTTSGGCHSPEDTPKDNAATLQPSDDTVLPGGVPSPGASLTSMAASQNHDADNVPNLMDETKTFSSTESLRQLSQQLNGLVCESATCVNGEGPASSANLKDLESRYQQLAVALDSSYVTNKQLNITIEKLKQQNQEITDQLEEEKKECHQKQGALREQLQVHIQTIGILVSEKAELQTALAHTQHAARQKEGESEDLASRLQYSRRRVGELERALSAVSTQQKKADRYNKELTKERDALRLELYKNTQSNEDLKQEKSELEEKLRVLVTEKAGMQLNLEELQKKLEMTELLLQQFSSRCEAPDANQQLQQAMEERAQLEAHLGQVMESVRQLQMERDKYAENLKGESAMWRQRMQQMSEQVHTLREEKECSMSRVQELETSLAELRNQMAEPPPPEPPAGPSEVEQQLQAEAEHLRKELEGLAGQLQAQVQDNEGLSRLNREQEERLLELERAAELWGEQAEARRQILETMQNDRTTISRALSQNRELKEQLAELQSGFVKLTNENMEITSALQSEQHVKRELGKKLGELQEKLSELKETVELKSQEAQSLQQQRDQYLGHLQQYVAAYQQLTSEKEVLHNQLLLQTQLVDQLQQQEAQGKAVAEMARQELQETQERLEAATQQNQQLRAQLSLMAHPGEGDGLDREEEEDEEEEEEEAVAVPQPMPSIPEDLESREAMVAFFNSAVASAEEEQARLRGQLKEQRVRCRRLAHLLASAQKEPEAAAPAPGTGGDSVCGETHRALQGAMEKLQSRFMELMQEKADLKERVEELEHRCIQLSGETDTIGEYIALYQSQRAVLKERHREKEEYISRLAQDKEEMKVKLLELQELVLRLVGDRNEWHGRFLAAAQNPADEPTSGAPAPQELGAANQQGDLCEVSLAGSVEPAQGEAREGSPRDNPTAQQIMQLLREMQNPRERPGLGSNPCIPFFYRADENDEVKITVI
UniProt Q07157: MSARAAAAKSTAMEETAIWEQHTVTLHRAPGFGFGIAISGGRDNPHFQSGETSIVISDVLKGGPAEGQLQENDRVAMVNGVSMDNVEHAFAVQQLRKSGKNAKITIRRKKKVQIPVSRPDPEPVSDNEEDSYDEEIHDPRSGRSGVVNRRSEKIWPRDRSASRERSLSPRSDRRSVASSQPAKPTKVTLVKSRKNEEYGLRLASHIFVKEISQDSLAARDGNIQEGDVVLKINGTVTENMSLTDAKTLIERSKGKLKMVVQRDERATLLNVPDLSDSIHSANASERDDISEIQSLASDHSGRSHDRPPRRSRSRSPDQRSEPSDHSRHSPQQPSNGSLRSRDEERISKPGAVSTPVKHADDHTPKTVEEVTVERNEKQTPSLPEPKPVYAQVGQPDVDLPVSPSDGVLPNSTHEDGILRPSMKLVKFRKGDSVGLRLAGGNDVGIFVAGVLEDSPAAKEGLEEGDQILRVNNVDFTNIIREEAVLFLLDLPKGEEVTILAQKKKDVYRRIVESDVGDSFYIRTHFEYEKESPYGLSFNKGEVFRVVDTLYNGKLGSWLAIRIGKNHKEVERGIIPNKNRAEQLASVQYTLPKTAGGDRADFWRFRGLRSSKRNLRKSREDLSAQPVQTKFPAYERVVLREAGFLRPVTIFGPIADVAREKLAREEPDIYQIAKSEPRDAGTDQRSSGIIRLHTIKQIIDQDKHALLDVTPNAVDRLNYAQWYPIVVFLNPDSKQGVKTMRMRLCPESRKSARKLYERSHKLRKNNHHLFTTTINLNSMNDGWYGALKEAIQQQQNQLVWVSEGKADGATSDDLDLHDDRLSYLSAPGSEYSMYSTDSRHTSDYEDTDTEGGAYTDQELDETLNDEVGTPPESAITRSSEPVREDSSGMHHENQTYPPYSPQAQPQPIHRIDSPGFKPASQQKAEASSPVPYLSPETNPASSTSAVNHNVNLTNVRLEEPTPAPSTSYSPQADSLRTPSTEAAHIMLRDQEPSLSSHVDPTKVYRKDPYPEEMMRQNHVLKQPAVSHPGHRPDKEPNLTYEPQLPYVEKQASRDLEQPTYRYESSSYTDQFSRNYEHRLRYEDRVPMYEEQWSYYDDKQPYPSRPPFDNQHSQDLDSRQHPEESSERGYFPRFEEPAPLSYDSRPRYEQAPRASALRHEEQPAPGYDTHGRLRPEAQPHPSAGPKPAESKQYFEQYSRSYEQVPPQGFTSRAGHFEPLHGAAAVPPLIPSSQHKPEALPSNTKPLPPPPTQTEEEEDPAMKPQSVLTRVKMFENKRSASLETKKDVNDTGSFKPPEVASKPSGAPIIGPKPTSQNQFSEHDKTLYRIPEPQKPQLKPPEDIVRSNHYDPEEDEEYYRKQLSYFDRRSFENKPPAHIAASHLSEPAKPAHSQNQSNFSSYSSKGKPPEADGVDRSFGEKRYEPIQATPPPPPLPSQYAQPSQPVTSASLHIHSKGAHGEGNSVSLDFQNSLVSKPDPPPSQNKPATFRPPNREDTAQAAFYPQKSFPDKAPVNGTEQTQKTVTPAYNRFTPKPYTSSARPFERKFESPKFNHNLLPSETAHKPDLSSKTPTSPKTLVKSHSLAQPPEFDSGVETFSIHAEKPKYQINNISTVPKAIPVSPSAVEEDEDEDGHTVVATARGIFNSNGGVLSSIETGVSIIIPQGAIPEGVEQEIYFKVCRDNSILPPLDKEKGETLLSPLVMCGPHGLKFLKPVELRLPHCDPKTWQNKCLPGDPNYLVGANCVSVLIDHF
UniProt Q07812, whole entry: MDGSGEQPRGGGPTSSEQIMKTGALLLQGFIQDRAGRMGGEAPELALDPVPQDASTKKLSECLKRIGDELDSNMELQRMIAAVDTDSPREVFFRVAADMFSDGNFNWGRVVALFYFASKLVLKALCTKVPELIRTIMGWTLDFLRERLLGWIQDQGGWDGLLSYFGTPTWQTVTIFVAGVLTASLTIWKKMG
UniProt Q05513: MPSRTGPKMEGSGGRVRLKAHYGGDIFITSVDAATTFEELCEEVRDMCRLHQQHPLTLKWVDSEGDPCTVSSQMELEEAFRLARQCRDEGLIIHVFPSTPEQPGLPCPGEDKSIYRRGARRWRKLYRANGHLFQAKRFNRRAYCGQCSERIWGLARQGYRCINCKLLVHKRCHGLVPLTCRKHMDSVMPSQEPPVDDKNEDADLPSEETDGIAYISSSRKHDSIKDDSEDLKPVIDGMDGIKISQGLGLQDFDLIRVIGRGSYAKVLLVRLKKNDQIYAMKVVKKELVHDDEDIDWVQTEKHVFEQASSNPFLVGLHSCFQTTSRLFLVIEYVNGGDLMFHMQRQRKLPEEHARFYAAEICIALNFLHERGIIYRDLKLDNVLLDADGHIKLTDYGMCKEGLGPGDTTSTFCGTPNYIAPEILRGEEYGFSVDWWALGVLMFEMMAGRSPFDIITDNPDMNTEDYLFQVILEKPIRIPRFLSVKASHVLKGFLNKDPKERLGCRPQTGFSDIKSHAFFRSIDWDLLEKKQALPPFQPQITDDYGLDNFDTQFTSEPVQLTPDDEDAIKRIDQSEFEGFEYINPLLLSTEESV
UniProt Q12981: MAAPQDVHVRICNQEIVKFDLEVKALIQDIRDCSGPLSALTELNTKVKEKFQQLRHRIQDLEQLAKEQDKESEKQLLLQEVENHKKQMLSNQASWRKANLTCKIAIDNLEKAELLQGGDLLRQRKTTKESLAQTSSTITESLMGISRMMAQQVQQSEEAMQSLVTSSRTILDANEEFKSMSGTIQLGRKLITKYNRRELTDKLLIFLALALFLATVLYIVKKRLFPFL
UniProt Q13033: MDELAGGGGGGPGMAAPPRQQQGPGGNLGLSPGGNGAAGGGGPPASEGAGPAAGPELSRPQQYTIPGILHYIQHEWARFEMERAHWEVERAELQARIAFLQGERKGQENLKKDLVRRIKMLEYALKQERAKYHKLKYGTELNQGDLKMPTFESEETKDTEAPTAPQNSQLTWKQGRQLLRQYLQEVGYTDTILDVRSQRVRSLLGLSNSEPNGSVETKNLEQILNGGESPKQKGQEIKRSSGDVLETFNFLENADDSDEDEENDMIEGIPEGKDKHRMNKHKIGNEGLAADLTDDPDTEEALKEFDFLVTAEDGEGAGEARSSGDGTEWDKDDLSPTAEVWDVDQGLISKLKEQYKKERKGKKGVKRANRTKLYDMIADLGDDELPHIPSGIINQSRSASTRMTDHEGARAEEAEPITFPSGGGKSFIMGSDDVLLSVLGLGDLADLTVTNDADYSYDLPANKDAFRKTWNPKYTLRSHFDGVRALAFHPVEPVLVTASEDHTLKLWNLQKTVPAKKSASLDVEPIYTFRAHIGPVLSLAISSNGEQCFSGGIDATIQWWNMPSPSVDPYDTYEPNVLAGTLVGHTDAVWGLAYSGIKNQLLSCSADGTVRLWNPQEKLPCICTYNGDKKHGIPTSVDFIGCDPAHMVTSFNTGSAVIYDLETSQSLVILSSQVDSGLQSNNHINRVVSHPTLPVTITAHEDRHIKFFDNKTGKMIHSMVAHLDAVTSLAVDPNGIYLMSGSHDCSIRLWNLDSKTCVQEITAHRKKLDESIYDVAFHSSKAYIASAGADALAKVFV

The other results are listed elsewhere or left out. Most values lie at the level of the controls, where differences are scatter.

Compound in the experiment: Cc1nc(Nc2ncc(C(=O)Nc3c(C)cccc3Cl)s2)cc(N2CCN(CCO)CC2)n1 [dasatinib]
The experiment is described as follows: log2 fold change of tryptic peptide abundance, ligand vs vehicle (limited proteolysis) (log2 ratio); higher = more trypsin-susceptible (destabilized). To be noted: ligand concentration: 5 uM; sample: K562 cleared lysate.
Regarding “PITPNA (peptide sequence: TVITNEYMKEDFLIK, peptide start residue: 96) (UniProt Q00169)”, the log2 fold change turned out to be 0.345.

“RNASEL (peptide sequence: GGATALMDAAEKGHVEVLK, peptide start residue: 167) (UniProt Q05823)”: the log2 fold change came to 0.309.

In the case of “TLE4 (peptide sequence: SSSVSPSASFR, peptide start residue: 204) (UniProt Q04727)”, the log2 fold change stood at 0.347.

Turning to “UniProt P84085 (peptide sequence: MLQEDELR, peptide start residue: 110)”, the log2 fold change was -0.166.

Consider “TFCP2 (peptide sequence: MVRPRLTIYVCQESLQLR, peptide start residue: 385) (UniProt Q12800)”, for which the log2 fold change was found to be 0.107.

For the target “RBL2 (peptide sequence: NILQQHFDK, peptide start residue: 385) (UniProt Q08999)”, the log2 fold change is -0.595.

“RPL6 (peptide sequence: YYPTEDVPR, peptide start residue: 115) (UniProt Q02878)”: the log2 fold change was 0.051.

With “UniProt P84098 (peptide sequence: VWLDPNETNEIANANSR, peptide start residue: 22)”, the log2 fold change was 0.155.

In the case of “XPC (peptide sequence: GCSHPGGSADGPAK, peptide start residue: 59) (UniProt Q01831)”, the log2 fold change was 0.223.

For the target “FMR1 (peptide sequence: ENSTHFSQPNSTK, peptide start residue: 360) (UniProt Q06787)”, the log2 fold change worked out at 0.13.

In the case of “UniProt Q08ER8 (peptide sequence: HSIIHTGEKPYECSECGK, peptide start residue: 529)”, the log2 fold change was -0.154.

Take “SLC20A2 (peptide sequence: AADSSAPEDSEK, peptide start residue: 404) (UniProt Q08357)”: the log2 fold change was determined as 0.624.

As for “EEF1A2 (peptide sequence: QTVAVGVIKNVEKK, peptide start residue: 431) (UniProt Q05639)”, the log2 fold change is 0.42.

On to “GOLGA2 (peptide sequence: AQLEAHLGQVMESVR, peptide start residue: 373) (UniProt Q08379)”, for which the log2 fold change is 0.329.

Take “MLLT1 (peptide sequence: EPPPPQKPPPPNSK, peptide start residue: 456) (UniProt Q03111)”: the log2 fold change amounted to 0.963.

Turning to “TJP1 (peptide sequence: THFEYEKESPYGLSFNKGEVFR, peptide start residue: 523) (UniProt Q07157)”, the log2 fold change came to 0.215.

As for “EXOSC9 (peptide sequence: MEKAPIDTSDVEEK, peptide start residue: 298) (UniProt Q06265)”, the log2 fold change came to 0.192.

For “TFAM (peptide sequence: FKEQLTPSQIMSLEKEIMDK, peptide start residue: 117) (UniProt Q00059)”, the log2 fold change was -0.146.

“BAX (peptide sequence: GGGPTSSEQIMK, peptide start residue: 10) (UniProt Q07812)”: the log2 fold change is -0.102.

For “KIF1A (peptide sequence: ISLVDLAGSERADSTGAK, peptide start residue: 244) (UniProt Q12756)”, the log2 fold change is -0.429.

For the target “UniProt Q03112 (peptide sequence: SGLSALDHIR, peptide start residue: 1133)”, the log2 fold change came out at 0.186.

Turning to “MEF2C (peptide sequence: SPPPMNLGMNNR, peptide start residue: 240) (UniProt Q06413)”, the log2 fold change is -0.176.

Consider “APBA1 (peptide sequence: MMQAQEAVSR, peptide start residue: 394) (UniProt Q02410)”, for which the log2 fold change is -0.0233.

As for “UniProt Q05513 (peptide sequence: LTDYGMCK, peptide start residue: 394)”, the log2 fold change is -0.122.

On to “BNIP1 (peptide sequence: AELLQGGDLLR, peptide start residue: 112) (UniProt Q12981)”, for which the log2 fold change was -0.501.

With “STRN3 (peptide sequence: MPTFESEETK, peptide start residue: 148) (UniProt Q13033)”, the log2 fold change came to 0.23.

“GTF3C1 (peptide sequence: SSRPFER, peptide start residue: 1017) (UniProt Q12789)”: the log2 fold change turned out to be 0.366.

Regarding “RPL18 (peptide sequence: HFGKAPGTPHSHTKPYVR, peptide start residue: 151) (UniProt Q07020)”, the log2 fold change is -0.13.
